Laboratory results taken from US20250346943A1, “DEGRADER COMPOUNDS OF QSOX1 mRNA” (UNIVERSITY OF FLORIDA RESEARCH FOUNDATION, INCORPORATED, priority 2022, published 2025).
Some results were stated once for a whole list of compounds, not compound by compound.

Molecular target: mutant RNA lacking U-bulge (fully paired RNA)
Test: In vitro binding by fluorescence polarization, Cy5-labeled mutant RNA
Protocol: In Vitro Binding by Measuring Changes in Fluorescence Polarization. Cy5-labeled RNA was folded by heating at 95° C. for 2 min in 1× Folding Buffer and cooled on ice. Serial dilutions of F1 (200 to 0.4 μM, 1:1 dilutions) were prepared in 1× Folding Buffer with 4% (w/v) bovine serum albumin (BSA) with constant DMSO concentration (2% v/v). The compound solutions (10 μL) were added to a well of non-binding 384-well plate (Corning). An equal volume of folded RNA was adding to each well with a final concentration of 50 nM. The samples were incubated at room temperature for 30 min, and then fluorescence polarization was measured with a Molecular Devices SpectraMax M5 plate reader with an excitation wavelength of 640 nm and an emission wavelength of 680 nm.

Q: Which Kd does the source give for `CCOC(=O)C1=C(Nc2ccccc2)S/C(=C\c2ccc(O)c(OCCOCCOCCOCCNC(=O)CCC(=O)N(C)[C@H]3CC[C@@H](c4ccc(Cl)c(Cl)c4)c4ccccc43)c2)C1=O` [Compound F1-CTRL] here?
A: > 100 µM

Q: How did the Kd turn out when `CCCNC(=O)CCC(=O)N(C)[C@H]1CC[C@@H](c2ccc(Cl)c(Cl)c2)c2ccccc21` [Compound F1-Amide] was run?
A: > 100 µM

Q: For `CCOC(=O)C1=C(Nc2ccccc2)S/C(=C\c2ccc(OCCOCCOCCOCCNC(=O)CCC(=O)N(C)[C@H]3CC[C@@H](c4ccc(Cl)c(Cl)c4)c4ccccc43)c(O)c2)C1=O` [Compound F1-RIBOTAC], which Kd is on record?
A: > 100 µM
